Results taken from article PMC7805345.
No constants are given. Whether binding was seen depends on the method and setting. Sequences can lack the tags named with a protein.

Columns and labels:
[1] = target: T1, M. smegmatis GlgE H349Y variant (M. smegmatis) (UniProt Q9RP48); assay: other fluorescence titration; intrinsic tryptophan fluorescence of 1 uM GlgE (methods: H349Y) with GarA up to 100 uM; 100 mM Bis-Tris propane, pH 7.0, 50 mM NaCl; both purified
T1 sequence: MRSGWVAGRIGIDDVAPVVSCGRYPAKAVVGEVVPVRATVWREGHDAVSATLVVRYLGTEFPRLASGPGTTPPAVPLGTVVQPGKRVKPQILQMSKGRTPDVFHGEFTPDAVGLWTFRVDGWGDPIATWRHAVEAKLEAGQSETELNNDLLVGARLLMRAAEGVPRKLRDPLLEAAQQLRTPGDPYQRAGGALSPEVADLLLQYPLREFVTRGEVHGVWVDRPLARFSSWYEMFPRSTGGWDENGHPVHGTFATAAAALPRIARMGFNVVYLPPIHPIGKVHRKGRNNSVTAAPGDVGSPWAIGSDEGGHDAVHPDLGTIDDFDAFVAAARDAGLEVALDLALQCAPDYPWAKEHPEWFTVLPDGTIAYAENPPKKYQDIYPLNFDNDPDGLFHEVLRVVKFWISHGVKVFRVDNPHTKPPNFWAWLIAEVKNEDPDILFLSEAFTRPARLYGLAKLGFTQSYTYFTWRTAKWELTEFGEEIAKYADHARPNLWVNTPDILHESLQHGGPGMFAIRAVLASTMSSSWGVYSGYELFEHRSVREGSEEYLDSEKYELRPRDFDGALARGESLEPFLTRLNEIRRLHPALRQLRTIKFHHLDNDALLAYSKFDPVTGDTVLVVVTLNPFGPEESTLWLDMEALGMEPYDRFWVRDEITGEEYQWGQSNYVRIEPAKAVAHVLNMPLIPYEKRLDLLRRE

[2] = target: T2, M. smegmatis GlgE (wild-type) labelled with dansyl chloride (M. smegmatis) (UniProt Q9RP48); assay: fluorescence polarisation; fluorescence anisotropy; GarA titrated into 1 uM dansyl-labelled GlgE up to 630 uM at 25 and 42 °C; 100 mM Bis-Tris propane, pH 7.0, 50 mM NaCl; excitation 335 nm, emission 515 nm; both purified
T2 sequence (chain, dansyl groups (labelled with dansyl chloride; sites not stated)): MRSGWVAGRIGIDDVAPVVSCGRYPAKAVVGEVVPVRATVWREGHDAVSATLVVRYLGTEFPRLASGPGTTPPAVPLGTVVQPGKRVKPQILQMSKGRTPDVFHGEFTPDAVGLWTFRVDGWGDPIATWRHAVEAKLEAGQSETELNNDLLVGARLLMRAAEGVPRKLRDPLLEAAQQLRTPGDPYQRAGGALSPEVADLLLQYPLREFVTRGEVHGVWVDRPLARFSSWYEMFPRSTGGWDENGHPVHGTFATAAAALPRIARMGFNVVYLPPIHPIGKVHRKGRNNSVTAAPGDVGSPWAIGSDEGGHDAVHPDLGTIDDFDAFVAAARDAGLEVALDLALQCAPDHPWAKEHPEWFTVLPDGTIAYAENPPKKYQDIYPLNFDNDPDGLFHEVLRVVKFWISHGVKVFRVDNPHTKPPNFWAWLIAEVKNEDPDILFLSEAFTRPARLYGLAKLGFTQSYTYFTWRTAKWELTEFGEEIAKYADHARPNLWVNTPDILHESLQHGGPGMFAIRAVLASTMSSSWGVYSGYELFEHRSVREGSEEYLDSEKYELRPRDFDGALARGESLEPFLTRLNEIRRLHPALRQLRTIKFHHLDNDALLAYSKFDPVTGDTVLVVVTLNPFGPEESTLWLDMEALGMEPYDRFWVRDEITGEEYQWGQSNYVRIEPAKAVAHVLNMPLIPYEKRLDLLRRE

binding [1]: no binding (tested: 100 μM) | binding [2]: no binding (tested: 630 μM)
B1: Mycobacterium smegmatis GarA (protein, UniProt A0QYG2 1-158)
chain: MTDKDSNLGADQSEDVTVETTSVFRADFLNELDAPAAAGTEGAVSGVEGLPSGSALLVVKRGPNAGSRFLLDQPTTSAGRHPDSDIFLDDVTVSRRHAEFRLEGGEFQVVDVGSLNGTYVNREPVDSAVLANGDEVQIGKFRLVFLTGPKSDDSGSNA
